# Values joined by “and” are separate entries in the source; they are usually repeats but may differ in a detail not shown here. Identical values can stand only once. In all, about 240,000 compounds went through this assay and about 1,300 (0.54%) were called active. Inconclusive results, whose numbers are uncertain, are shown with a selection of clear calls. Calls follow the shape of the dose curve; as a rule, active = well fitted inhibition curve with a large enough effect; inconclusive = small, poorly fitted or top-dose-only effect; inactive = flat fitted curve, though single readings scatter. Where the call is inconclusive, the potency comes from a doubtful curve fit.
# Chains of the proteins cited; added tags and fusions are not shown. Lines headed by an entry give the natural chain unless they say otherwise; changes in a name come on top.
# UniProt P46063: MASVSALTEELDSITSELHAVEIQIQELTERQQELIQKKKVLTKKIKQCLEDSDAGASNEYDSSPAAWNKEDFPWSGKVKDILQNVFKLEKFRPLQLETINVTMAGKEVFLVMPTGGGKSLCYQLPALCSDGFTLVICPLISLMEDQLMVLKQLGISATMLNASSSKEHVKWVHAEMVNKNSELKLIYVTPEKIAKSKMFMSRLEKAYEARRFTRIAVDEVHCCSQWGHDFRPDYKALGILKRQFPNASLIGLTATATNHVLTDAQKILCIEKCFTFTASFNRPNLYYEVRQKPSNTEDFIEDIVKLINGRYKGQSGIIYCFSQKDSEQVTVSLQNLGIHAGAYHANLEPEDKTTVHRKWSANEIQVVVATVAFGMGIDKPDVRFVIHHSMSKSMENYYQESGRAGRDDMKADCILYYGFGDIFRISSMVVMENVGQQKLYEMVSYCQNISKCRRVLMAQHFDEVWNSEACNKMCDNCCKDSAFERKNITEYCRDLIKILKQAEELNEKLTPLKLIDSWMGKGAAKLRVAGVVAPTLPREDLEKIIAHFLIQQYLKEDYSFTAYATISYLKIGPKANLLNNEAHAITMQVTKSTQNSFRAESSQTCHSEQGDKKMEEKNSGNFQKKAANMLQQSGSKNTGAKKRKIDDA
# Target: ATP-dependent DNA helicase Q1 (Homo sapiens) (UniProt P46063)
# Assay: qHTS Assay for Inhibitors of RecQ-Like Dna Helicase 1 (RECQ1); also: nearly all actives have a fitted effect of over 30% in size;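 as to activity, negative = inhibition: plate controls were vehicle for no effect and no enzyme for full effect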
# Settings: RECQ1 DNA unwinding, red fluorescence kinetic read; series mostly up to 57.3 µM; activity, negative = inhibition: at the top concentration
# Excerpt: Survival of cells and the faithful propagation of the genome depend on elaborate mechanisms of detecting and repairing DNA damage. Treatment of advanced cancer relies on radiation therapy or chemotherapy, which kill cancer cells by causing extensive DNA damage. It is often found, that cancer cells develop resistance to therapy through enhanced activity of DNA repair functions; this has led to an increased interest in developing drugs that interfere with DNA repair, which could sensitize cancer cells to conventional therapy.
# This validation qHTS assay pertains to human RECQ1, which is important in resolving abnormal DNA structures formed during replication or homologous recombination. Shutting down the expression of RECQ1 leads to chromosomal instability and higher radiation sensitivity in cultured cells.
# The validation assay was a fluorescence quenching based kinetic qHTS for RECQ1 Helicase DNA unwinding. The activity was measured as ATP-dependent separation of a 20-bp DNA duplex extended by 30-nt single-stranded tails (forked duplex). The forked DNA substrate was tagged with rhodamine fluorophore (carboxytetramethyl rhodamine, TAMRA) and BHQ-2 (Black Hole Quencher 2) dark quencher. Strand separation results in an increase in the fluorescence of TAMRA (excitation 525 nm, emission 598 nm). This substrate construct operates in a red-shifted region where very few compound library members have been noted to fluoresce (PubChem AIDs 593 and 594). An additional feature of the assay is the inclusion of 2.5 ug/ml poly (dIdC), to reduce interference by compounds such as DNA intercalators, a major source of false inhibitors.
# Opher Gileadi, Structural Genomics Consortium, University of Oxford
# Screening Center PI: Austin, C.P.
# Screening Center: NIH Chemical Genomics Center [NCGC]
# Three uL of reaction buffer (25 mM Tris-HCl (pH 8.0), 5 mM NaCl, 2 mM MgCl2, 1mM DTT, 0.01% Tween- 20, and 2.5 ug/ml poly(dI-dC), including enzyme (50 nM RECQ1T1), were dispensed into a 1536-well Greiner black assay plate via solenoid-valve based nanoliter dispensers. Compounds (23 nl each in columns 5-48) and control (23 nl each in column 2 as dose-response) were transferred via a Kalypsys pintool equipped with a 1536-pin array. The plates were incubated for 15 min at room temperature, and then 1 ul of substrates (200 nM DNA and 2 mM ATP, final concentrations) was added to start the reaction. The plate was transferred into a ViewLux high-throughput CCD imager where the reaction progress was measured in a discontinuous kinetic mode (two reads spaced 2 hours apart, with intermediate room temperature incubation of the covered assay plate) by using standard red-fluorescence optics (excitation filter 525 nm, emission filter 598 nm). Enzyme-free and vehicle (DMSO) controls were included for signal normalization.
# Potency is read from the fitted curve at half-maximal effect.
Compound,Potency,outcome,"activity, negative = inhibition"
CN1/C(=C\C=Nc2ccccc2)C(C)(C)c2ccccc21,"inconclusive: 15.8 µM [inhibitor, partial curve, poor fit]",,
CC[C@@H](CO)NC(=O)[C@@H]1C=C2c3cccc4[nH]cc(c34)C[C@H]2N(C)C1,active: 35.5 µM,,
ClC(Cl)=C(Cl)Cl,inactive,,
N#CC(C#N)=Cc1cc(O)c(O)c([N+](=O)[O-])c1,active: 31.6 µM,,
CCN(CC)c1ccc(/C=C2/C(=O)NC(=O)N(Cc3ccco3)C2=O)cc1,active: 31.6 µM,,
CNc1ccc2oc(C[C@@H]3OC4(CC[C@@H]3C)O[C@H](C(C)C(=O)c3ccc[nH]3)[C@H](C)C[C@H]4C)nc2c1C(=O)O (stereo partly specified),,inactive,
CC(C)(C)c1cc(C=C(C#N)C#N)cc(C(C)(C)C)c1O,"inconclusive: 31.6 µM [inhibitor, single point]",,
CCCCN1C(=O)/C(=C/C=C/c2ccco2)C(=O)NC1=S,active: 14.1 µM,,
CCN(CC)c1ccc(CC2C(=O)N(C)C(=O)N(C)C2=O)cc1,active: 31.6 µM,,
CC1=CC2/C=C(\C)CCC(O)C(O)/C=C/C(=O)C23C(=O)NC(CC(C)C)C3C1C (stereo unspecified),,,inactive: -20%
COc1ccc(-n2c(O)c(/C=C/C=Nc3ccccc3)c(=O)[nH]c2=O)cc1,"inconclusive: 35.5 µM [inhibitor, single point]",,
Cn1c(O)c(/C=N/NC(=O)c2ccncc2)c(=O)[nH]c1=S,active: 3.16 µM,,
N#CSCSC#N,,,inactive: -10.2%
O=C(CCCN1CCC2(CC1)C(=O)NCN2c1ccccc1)c1ccc(F)cc1,"inconclusive: 6.31 µM [inhibitor, single point]",,
CCCCC1(C2CCCC2)Cc2cc(OCCCC(=O)O)c(Cl)c(Cl)c2C1=O (stereo unspecified),"inconclusive: 39.8 µM [inhibitor, single point]",,
COC[C@H]1OC(=O)c2coc3c2[C@@]1(C)C1=C(C3=O)C2CCC(=O)[C@@]2(C)C[C@H]1OC(C)=O (stereo partly specified),active: 22.4 µM and active: 35.5 µM,,
CN(C(=O)Cc1ccc(Cl)c(Cl)c1)[C@H](CN1CCCC1)c1cccc(N=C=S)c1,"inconclusive: 6.31 µM [inhibitor, single point]",,
O=C(CCl)Nc1nccs1,,,inactive: -10.4%
CN1CCc2cc3c(cc2[C@@H]1O)OCO3,,,inactive: -10.2% [at 25.9 µM]
CCC(C)NC(=O)c1c(N)n(CCCOC)c2nc3ccccc3nc12 (stereo unspecified),"inconclusive: 39.8 µM [inhibitor, single point]",,
CCCC(Cn1cncn1)c1ccc(Cl)cc1Cl (stereo unspecified),,,inactive: -3.39%
C#CCN(C)[C@@H](C)Cc1ccccc1,,,inactive: -5.46% [at 25.9 µM]
Clc1ccc(COC(Cn2ccnc2)c2ccc(Cl)cc2Cl)cc1 (stereo unspecified),"inconclusive: 4.47 µM [inhibitor, partial curve, poor fit]",,
Cc1c(C(=O)N2CCC3(CC2)OCCO3)sc2ncnc(N3CCc4ccccc4C3)c12,,,inactive: -0.116%

Compound,Potency,outcome,"activity, negative = inhibition"
Cn1cccc1/C=C1/C(=O)NC(=O)N(Cc2ccc(F)cc2)C1=O,"inconclusive: 35.5 µM [inhibitor, single point]",,
Cc1ccc(N2C(=O)NC(=O)/C(=C\c3cc(C)n(-c4sc5c(c4C#N)CCCC5)c3C)C2=O)cc1,"inconclusive: 20 µM [inhibitor, partial curve]",,
CC[C@@]1(O)CC(O)c2c(cc3c(c2O)C(=O)c2c(O)ccc(O)c2C3=O)C1C(=O)OC (stereo partly specified),active: 3.98 µM,,
OCc1cnc[nH]1,"inconclusive: 3.98 µM [inhibitor, full curve]",,
CN1CCN(c2ccc(S(C)(=O)=O)cc2[N+](=O)[O-])CC1,,,inactive: -8.2%
CCOc1ccc(-c2nc3ccc(-c4nc5ccc(N6CCN(C)CC6)cc5[nH]4)cc3[nH]2)cc1,active: 28.2 µM and active: 12.6 µM,,
CN1/C(=C\C=C\C2=[N+](C)c3ccc4ccccc4c3C2(C)C)C(C)(C)c2ccccc21,active: 28.2 µM,,
C[C@]12C=CC(=O)C=C1CCC1C2=CC[C@]2(C)[C@@H](C(=O)CN3CCN(c4cc(N5CCCC5)nc(N5CCCC5)n4)CC3)CC[C@@H]12 (stereo partly specified),"inconclusive: 12.6 µM [inhibitor, partial curve, poor fit]",,
O=C1NC(=S)N(Cc2ccco2)C(=O)/C1=C\c1cccs1,active: 7.08 µM,,
O=C(Oc1ccccc1)N1CCC[C@@]2(CCN(C(c3ccccc3)c3ccccc3)C2)C1,"inconclusive: 39.8 µM [inhibitor, single point]",,
Cc1cc([C@@H]2CCCN2C)on1,,,inactive: -2.28%
Cc1ccc(/C(CSc2nccn2-c2ncc(C(F)(F)F)cc2Cl)=N\O)cc1,"inconclusive: 39.8 µM [inhibitor, single point]",,
CN1CCC2(CC1)C(C#N)=C(N)NC(S)=C2C#N,"inconclusive: 39.8 µM [inhibitor, single point]",,
CC12CC[C@H]3[C@@H](CCC4(O)C[C@H](O)CCC34/C=N/NC(=O)c3ccccc3O)C1(O)CCC2C1=CC(=O)OC1 (stereo partly specified),"inconclusive: 31.6 µM [inhibitor, single point]",,
CC(=O)c1ccc2c(c1)C1C(Cl)C(Sc3ccccc3[N+](=O)[O-])CC1C(C(=O)O)N2 (stereo unspecified),"inconclusive: 39.8 µM [inhibitor, single point]",,
CCOc1cccc(OCC)c2c(C)[n+](CC3CCCO3)c(C)c1-2 (stereo unspecified),"inconclusive: 35.5 µM [inhibitor, single point]",,
CCCCn1c(N)c(C(=O)OCC2CCCO2)c2nc3ccccc3nc21 (stereo unspecified),"inconclusive: 39.8 µM [inhibitor, single point]",,
CN(C)[C@H]1C(=O)C(C(N)=O)=C(O)[C@]2(O)C(=O)C3=C(O)c4c(O)cccc4[C@@](C)(O)[C@H]3C[C@@H]12,,,inactive: -8.95% [at 25.9 µM]
O=C1Nc2ccccc2/C1=C/c1nc2ccccc2c(=O)n1-c1ccc(O)cc1,"inconclusive: 39.8 µM [inhibitor, single point]",,
O=c1c2ccccc2[se]n1-c1ccccc1,inactive,,
CC(C)n1c(=O)c(C=Nc2ccc(Br)cc2)c(O)n(Cc2ccco2)c1=O,"inconclusive: 35.5 µM [inhibitor, single point]",,
Cc1ccc(N2C(=O)NC(=O)/C(=C\c3ccc([N+](=O)[O-])o3)C2=O)cc1,"inconclusive: 12.6 µM [inhibitor, partial curve, poor fit]",,
CC[N+](C)(CC)CCC[n+]1c(-c2ccccc2)c2cc(N)ccc2c2ccc(N)cc21,active: 11.2 µM and active: 35.5 µM,,

Compound,Potency,outcome,"activity, negative = inhibition"
CCCC(C)C1(CC)C(=O)NC(=Nc2ccccc2OC)NC1=O (stereo unspecified),"inconclusive: 2.51 µM [inhibitor, partial curve]",,
COC(=O)C1=Nc2ccccc2/C1=C\c1c(O)n(-c2ccc(Br)cc2)c(=O)[nH]c1=O,,,inactive: 5.1%
Cc1ccnc(-n2c(C)cc(C=C3C(=O)N(C)C(=S)N(C)C3=O)c2C)c1,active: 39.8 µM,,
Clc1ccc(CS[C@@H](Cn2ccnc2)c2ccc(Cl)cc2Cl)cc1,,inactive [at 25.9 µM],
CC(C)CCNC(=O)c1c(N)n(Cc2ccc3c(c2)OCO3)c2nc3ccccc3nc12,"inconclusive: 39.8 µM [inhibitor, single point]",,
Cc1cccc(N2C(=O)NC(=O)/C(=C\C=C\c3ccco3)C2=O)c1,active: 22.4 µM,,
COc1cc2c(cc1O)C[C@H]1c3c(cc(OC)c(O)c3-2)CCN1C,active: 25.1 µM,,
CC1CC(C)CN(S(=O)(=O)c2ccc3c(c2)oc(=O)n3CC(=O)NCc2cccnc2)C1 (stereo unspecified),"inconclusive: 35.5 µM [inhibitor, partial curve]",,
C=CC=O,,,inactive: 3.01%
Oc1c(Br)c(Br)c(Br)c(Br)c1Br,"inconclusive: 39.8 µM [inhibitor, partial curve, poor fit]",,
ClCCBr,,,inactive: -7.43%
O=C1NC(=S)N(c2ccc(F)cc2)C(=O)/C1=C\c1ccoc1,active: 31.6 µM,,
CC(=O)O[C@H]1CC[C@@]2(C)C(=CC[C@@H]3[C@H]2CC[C@]2(C)C(=O)CC[C@H]32)C1,,,inactive: -6.38% [at 25.9 µM]
Cc1ccc(/C=C2\C(=O)NC(=O)N(Cc3ccccc3Cl)C2=O)o1,"inconclusive: 35.5 µM [inhibitor, single point]",,
COC(=O)C1C2c3ccccc3OC1(C)N=c1s/c(=C/c3cnn(C)c3C)c(=O)n12 (stereo unspecified),"inconclusive: 39.8 µM [inhibitor, single point]",,
Cn1cccc1/C=C1\C(=O)NC(=O)N(Cc2ccccc2)C1=O,"inconclusive: 35.5 µM [inhibitor, single point]",,
N[C@@H](Cc1cc(I)c(O)c(I)c1)C(=O)O,"inconclusive: 35.5 µM [inhibitor, single point]",,
OCCOc1ccccc1,"inconclusive: 12.6 µM [inhibitor, full curve, poor fit]",,
CN(C)c1ccc(NC(=O)CN2C(=O)CN=C(c3ccccc3)c3ccccc32)cc1,"inconclusive: 5.01 µM [inhibitor, partial curve, poor fit]",,
Cn1c(O)c(/C=N/N2CCOCC2)c(=O)n(C)c1=S,"inconclusive: 31.6 µM [inhibitor, partial curve]",,
COc1ccc(N2C(=O)/C(=C/C=C/c3ccccc3[N+](=O)[O-])C(=O)NC2=S)cc1,active: 35.5 µM,,
CC(C)C[C@H]1C(=O)N2CCCC2[C@]2(O)O[C@](NC(=O)[C@@H]3C=C4c5cccc6[nH]cc(c56)CC4N(C)C3)(C(C)C)C(=O)N12 (stereo partly specified),"inconclusive: 25.1 µM [inhibitor, single point]",,
CN(C[C@H](Cc1ccccc1)N(C[C@H](Cc1ccccc1)N(CCc1cc(C(F)(F)F)cc(C(F)(F)F)c1)N=O)N=O)N=O,"inconclusive: 35.5 µM [inhibitor, single point]",,
